# For at least one compound, name, drawing or mass did not settle the structure. Some entries repeat one wording, which the source may state once for all of them.
# Assays:
# [1] = test system: ovalbumin sensitized Brown Norway rats; assay: Ovalbumin asthma model in Brown Norway rats (Example 5); format: in vivo, rat; settings: i.t. 1 hour before ovalbumin challenge, BAL 48 hours; dose dependent
# Protocol: Male BN rats were sensitized subcutaneously (s.c.) on day 0, 14 and 21 with 0.5 ml solution containing 20 μg/ml ovalbumin (Ova) and 40 mg/ml aluminum hydroxide. Simultaneously the animals were injected intraperitoneally (i.p.) with 0.25 ml of B. pertussis vaccine/rat containing 4×10^8 heat killed bacilli/ml. The rats were challenged with 1% aerosolized ovalbumin on Day 28 following sensitization.
# Test compounds were triturated and volume was made up with Normal Saline (0.9% NaCl). Animals were administered TRPA1 antagonists (Compound 52, Compound 73, Compound 84, Compound 90 and Compound 92) intra-tracheally (i.t.) 1 hour and fluticasone 24 hours and 1 hour before ovalbumin challenge. Animals were sacrificed 48 hours after ovalbumin challenge.
# BAL was performed at approximately 48 hours after ovalbumin challenge and the pooled BAL was used to determined total number of cells and for cell differential study (according to Example 2).
# The total number of eosinophils in each BAL sample and % inhibition of eosinophils were calculated according to Example 3
# The data was statistically evaluated by ANOVA followed by Dunnett's multiple comparisons test.
# [2] = test system: LPS exposed Brown Norway rats; assay: Aerosolized LPS induced airway inflammation in Brown Norway rats; format: in vivo, rat; settings: i.t. 4 hours before LPS; Compound 52 1000 μg/animal, Compound 90 2000 μg/animal; BAL 12 hours
# Protocol: Male Brown Norway rats were exposed to aerosolized Lipopolysaccharide (LPS) (100 μg/ml) for 40 minutes at 1.8 bar pressure using a nebulizer (Hudson Respiratory Care Incorporated), phosphate buffered saline (PBS) control animals were exposed to hyrdroxylamine hydrochloride in PBS.
# Test compounds were triturated and volume was made up with either distilled water or normal saline (0.9% NaCl). Animals were administered Compound 52 and Compound 90 intra-treacheally 4 hours before LPS aerosolized exposure. Animals were sacrificed 12 hours after aerosolized exposure. The control group of animals received only 2 mg Lactose/100 μl distilled water/animal intratracheally or normal saline 100 μl/animal intratracheally.
# Broncho alveolar lavage (BAL) was performed at approximately 12 hours after aerosolized exposure. Animals were euthanized with an overdose of urethane, trachea was exposed and BAL was performed 5 times using 2 ml PBS. All aspirates of BAL were pooled and total number of cells determined using a hemocytometer. BALFwas centrifuged. […]
# The total number of neutrophils in each BAL sample was calculated using the formula:
# [formula] Percent inhibition of neutrophils was calculated using the following formula:
# [formula] Data was statistically evaluated by ANOVA followed by Dunnett's multiple comparisons test. […]
Compound,pulmonary eosinophilia [1],neutrophils in BALF [2],total leukocytes in BALF [2]
Cn1c(=O)c2c(CC(=O)Nc3nc(-c4ccc(F)c(C(F)(F)F)c4F)cs3)csc2n(C)c1=O [Compound 52],significant inhibition,significant inhibition,significant inhibition
Cc1oc2c(c1CC(=O)Nc1nc(-c3ccc(OC(F)(F)F)c(Cl)c3)cs1)c(=O)n(C)c(=O)n2C [Compound 73],significant inhibition,,
Cn1c(=O)c2c(CC(=O)Nc3nc(-c4ccc(C(F)(F)F)c(F)c4F)cs3)nsc2n(C)c1=O [Compound 84],significant inhibition,,
